Results on three molecules are retold here after article PMC5620058, “IL-12p35 induces expansion of IL-10 and IL-35-expressing regulatory B cells and ameliorates autoimmune disease” (Nature Communications, 2017).

Results are given in words; binding and its absence hold for the method and conditions named. Some binding calls cover weakened binding; strength is not graded here. For some of these results: Tags and fused reporters may be left off the sequences shown.

The target in test [1] is T1, Ebi3 (endogenous, mouse spleen B cells) (mouse (endogenous in C57BL/6 spleen B cells)), O35228.
T1 chain: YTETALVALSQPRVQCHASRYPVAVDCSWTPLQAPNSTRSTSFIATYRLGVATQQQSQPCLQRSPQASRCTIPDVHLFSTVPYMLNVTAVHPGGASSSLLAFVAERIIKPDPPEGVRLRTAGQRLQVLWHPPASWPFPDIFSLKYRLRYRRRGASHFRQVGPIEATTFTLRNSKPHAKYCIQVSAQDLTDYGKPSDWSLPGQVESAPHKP
The test can be described thus: western blot of whole cell lysate; CD19+ B cells from the spleen of C57BL/6 mice 4 days after LPS injection (15 µg/mouse); whole cell lysate on SDS-PAGE, western blot. Conditions: remark: other sources report otherwise. In general terms: A western blot detects proteins with antibodies after separation by electrophoresis.

Test [2] addresses IL-12p35 (endogenous, mouse spleen cells) (mouse (endogenous in C57BL/6 spleen cells)) (UniProt P43431). Described as above.
The target is the same in test [3]. The experiment in a line: western blot of whole cell lysate; spleen cell lysate of EAU mice (IRBP in CFA; untreated or treated with p35), 21 days post-immunization; western blot, non-reduced condition.
The target in test [4] is mouse recombinant IL-12p35 (rIL-12p35; HBM-p35-Flag-His) (mouse) (UniProt P43431). The test can be described thus: AUC; sedimentation equilibrium, native conditions, reducing condition; peak fraction of Superose-6 further purified by Centricon filtration; both purified.

B1: Ebi3 (endogenous, mouse spleen B cells), O35228 19-228 (protein)
chain: YTETALVALSQPRVQCHASRYPVAVDCSWTPLQAPNSTRSTSFIATYRLGVATQQQSQPCLQRSPQASRCTIPDVHLFSTVPYMLNVTAVHPGGASSSLLAFVAERIIKPDPPEGVRLRTAGQRLQVLWHPPASWPFPDIFSLKYRLRYRRRGASHFRQVGPIEATTFTLRNSKPHAKYCIQVSAQDLTDYGKPSDWSLPGQVESAPHKP
For B1, the binding result in test [1] is “binds”.

B2: IL-12p35 (endogenous, mouse spleen cells) (protein, UniProt P43431 23-215)
chain: RVIPVSGPARCLSQSRNLLKTTDDMVKTAREKLKHYSCTAEDIDHEDITRDQTSTLKTCLPLELHKNESCLATRETSSTTRGSCLPPQKTSLMMTLCLGSIYEDLKMYQTEFQAINAALQNHNHQQIILDKGMLVAIDELMQSLNHNGETLRQKPPVGEADPYRVKMKLCILLHAFSTRVVTINRVMGYLSSA
As to B2, the binding entry in test [2] was “binds”; in test [3], “no binding (condition: spleen lysate of EAU mice)”.

B3: mouse recombinant IL-12p35 (rIL-12p35; HBM-p35-Flag-His) (natural protein, UniProt P43431 23-215, looked up)
chain: RVIPVSGPARCLSQSRNLLKTTDDMVKTAREKLKHYSCTAEDIDHEDITRDQTSTLKTCLPLELHKNESCLATRETSSTTRGSCLPPQKTSLMMTLCLGSIYEDLKMYQTEFQAINAALQNHNHQQIILDKGMLVAIDELMQSLNHNGETLRQKPPVGEADPYRVKMKLCILLHAFSTRVVTINRVMGYLSSA
notes: IL-12p35 (Il12a), mouse; cDNA amplified with the printed primers and cloned behind the honeybee melittin (HBM) secretion signal of pMIB; The same construct was obtained as a monomer (~27 kDa, FPLC fractions 29-30) and as a p35−p35 homodimer (~56-57 kDa, fractions 20-21); also called p35−p35; source: purified (Ni-NTA, Centricon filtration, Sephacryl S-200 and Superose-6 FPLC)
For B3, the binding result in test [4] was “no binding (condition: reducing condition)”.
